B1: Interleukin enhancer-binding factor 3 (protein, UniProt Q12906 1-894)
chain: MRPMRIFVNDDRHVMAKHSSVYPTQEELEAVQNMVSHTERALKAVSDWIDEQEKGSSEQAESDNMDVPPEDDSKEGAGEQKTEHMTRTLRGVMRVGLVAKGLLLKGDLDLELVLLCKEKPTTALLDKVADNLAIQLAAVTEDKYEILQSVDDAAIVIKNTKEPPLSLTIHLTSPVVREEMEKVLAGETLSVNDPPDVLDRQKCLAALASLRHAKWFQARANGLKSCVIVIRVLRDLCTRVPTWGPLRGWPLELLCEKSIGTANRPMGAGEALRRVLECLASGIVMPDGSGIYDPCEKEATDAIGHLDRQQREDITQSAQHALRLAAFGQLHKVLGMDPLPSKMPKKPKNENPVDYTVQIPPSTTYAITPMKRPMEEDGEEKSPSKKKKKIQKKEEKAEPPQAMNALMRLNQLKPGLQYKLVSQTGPVHAPIFTMSVEVDGNSFEASGPSKKTAKLHVAVKVLQDMGLPTGAEGRDSSKGEDSAEETEAKPAVVAPAPVVEAVSTPSAAFPSDATAEQGPILTKHGKNPVMELNEKRRGLKYELISETGGSHDKRFVMEVEVDGQKFQGAGSNKKVAKAYAALAALEKLFPDTPLALDANKKKRAPVPVRGGPKFAAKPHNPGFGMGGPMHNEVPPPPNLRGRGRGGSIRGRGRGRGFGGANHGGYMNAGAGYGSYGYGGNSATAGYSQFYSNGGHSGNASGGGGGGGGGSSGYGSYYQGDNYNSPVPPKHAGKKQPHGGQQKPSYGSGYQSHQGQQQSYNQSPYSNYGPPQGKQKGYNHGQGSYSYSNSYNSPGGGGGSDYNYESKFNYSGSGGRSGGNSYGSGGASYNPGSHGGYGGGSGGGSSYQGKQGGYSQSNYNSPGSGQNYSGPPSSYQSSQGGYGRNADHSMNYQYR
B2: Isoleucine--tRNA ligase, cytoplasmic (protein, UniProt P41252 1-1262)
chain: MLQQVPENINFPAEEEKILEFWTEFNCFQECLKQSKHKPKFTFYDGPPFATGLPHYGHILAGTIKDIVTRYAHQSGFHVDRRFGWDCHGLPVEYEIDKTLGIRGPEDVAKMGITEYNNQCRAIVMRYSAEWKSTVSRLGRWIDFDNDYKTLYPQFMESVWWVFKQLYDKGLVYRGVKVMPFSTACNTPLSNFESHQNYKDVQDPSVFVTFPLEEDETVSLVAWTTTPWTLPSNLAVCVNPEMQYVKIKDVARGRLLILMEARLSALYKLESDYEILERFPGAYLKGKKYRPLFDYFLKCKENGAFTVLVDNYVKEEEGTGVVHQAPYFGAEDYRVCMDFNIIRKDSLPVCPVDASGCFTTEVTDFAGQYVKDADKSIIRTLKEQGRLLVATTFTHSYPFCWRSDTPLIYKAVPSWFVRVENMVDQLLRNNDLCYWVPELVREKRFGNWLKDARDWTISRNRYWGTPIPLWVSDDFEEVVCIGSVAELEELSGAKISDLHRESVDHLTIPSRCGKGSLHRISEVFDCWFESGSMPYAQVHYPFENKREFEDAFPADFIAEGIDQTRGWFYTLLVLATALFGQPPFKNVIVNGLVLASDGQKMSKRKKNYPDPVSIIQKYGADALRLYLINSPVVRAENLRFKEEGVRDVLKDVLLPWYNAYRFLIQNVLRLQKEEEIEFLYNENTVRESPNITDRWILSFMQSLIGFFETEMAAYRLYTVVPRLVKFVDILTNWYVRMNRRRLKGENGMEDCVMALETLFSVLLSLCRLMAPYTPFLTELMYQNLKVLIDPVSVQDKDTLSIHYLMLPRVREELIDKKTESAVSQMQSVIELGRVIRDRKTIPIKYPLKEIVVIHQDPEALKDIKSLEKYIIEELNVRKVTLSTDKNKYGIRLRAEPDHMVLGKRLKGAFKAVMTSIKQLSSEELEQFQKTGTIVVEGHELHDEDIRLMYTFDQATGGTAQFEAHSDAQALVLLDVTPDQSMVDEGMAREVINRIQKLRKKCNLVPTDEITVYYKAKSEGTYLNSVIESHTEFIFTTIKAPLKPYPVSPSDKVLIQEKTQLKGSELEITLTRGSSLPGPACAYVNLNICANGSEQGGVLLLENPKGDNRLDLLKLKSVVTSIFGVKNTELAVFHDETEIQNQTDLLSLSGKTLCVTAGSAPSLINSSSTLLCQYINLQLLNAKPQECLMGTVGTLLLENPLGQNGLTHQGLLYEAAKVFGLRSRKLKLFLNETQTQEITEDIPVKTLNMKTVYVSVLPTTADF
B3: Heterogeneous nuclear ribonucleoprotein R (protein, UniProt O43390 1-633)
chain: MANQVNGNAVQLKEEEEPMDTSSVTHTEHYKTLIEAGLPQKVAERLDEIFQTGLVAYVDLDERAIDALREFNEEGALSVLQQFKESDLSHVQNKSAFLCGVMKTYRQREKQGSKVQESTKGPDEAKIKALLERTGYTLDVTTGQRKYGGPPPDSVYSGVQPGIGTEVFVGKIPRDLYEDELVPLFEKAGPIWDLRLMMDPLSGQNRGYAFITFCGKEAAQEAVKLCDSYEIRPGKHLGVCISVANNRLFVGSIPKNKTKENILEEFSKVTEGLVDVILYHQPDDKKKNRGFCFLEYEDHKSAAQARRRLMSGKVKVWGNVVTVEWADPVEEPDPEVMAKVKVLFVRNLATTVTEEILEKSFSEFGKLERVKKLKDYAFVHFEDRGAAVKAMDEMNGKEIEGEEIEIVLAKPPDKKRKERQAARQASRSTAYEDYYYHPPPRMPPPIRGRGRGGGRGGYGYPPDYYGYEDYYDDYYGYDYHDYRGGYEDPYYGYDDGYAVRGRGGGRGGRGAPPPPRGRGAPPPRGRAGYSQRGAPLGPPRGSRGGRGGPAQQQRGRGSRGSRGNRGGNVGGKRKADGYNQPDSKRRQTNNQQNWGSQPIAQQPLQQGGDYSGNYGYNNDNQEFYQDTYGQQWK

No constants are given. Whether binding was seen depends on the method and setting. In cells and extracts the contact can be indirect. Here binding means that the protein was enriched with, or labelled near, the bait; the list need not be complete.

In the assay the target is T1, E3 ubiquitin-protein ligase Midline-1 (UniProt O15344).
T1 sequence: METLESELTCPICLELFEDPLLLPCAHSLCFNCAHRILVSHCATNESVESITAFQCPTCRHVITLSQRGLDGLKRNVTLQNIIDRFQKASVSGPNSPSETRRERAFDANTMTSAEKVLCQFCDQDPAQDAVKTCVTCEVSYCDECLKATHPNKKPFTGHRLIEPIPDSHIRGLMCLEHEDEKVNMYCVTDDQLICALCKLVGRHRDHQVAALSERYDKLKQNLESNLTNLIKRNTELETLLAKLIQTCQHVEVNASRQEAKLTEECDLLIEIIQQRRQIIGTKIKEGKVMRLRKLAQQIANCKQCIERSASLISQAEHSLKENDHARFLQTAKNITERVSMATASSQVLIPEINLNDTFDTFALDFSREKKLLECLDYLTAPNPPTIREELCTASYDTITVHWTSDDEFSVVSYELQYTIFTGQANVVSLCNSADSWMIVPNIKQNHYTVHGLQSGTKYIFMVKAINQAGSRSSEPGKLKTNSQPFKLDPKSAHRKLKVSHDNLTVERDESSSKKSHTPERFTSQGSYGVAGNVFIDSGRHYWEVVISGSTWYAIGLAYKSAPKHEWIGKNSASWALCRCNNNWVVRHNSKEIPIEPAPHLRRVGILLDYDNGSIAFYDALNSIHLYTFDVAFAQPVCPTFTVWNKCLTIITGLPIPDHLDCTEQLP
Nature of the assay: affinity purification with mass spectrometry; MID1-FLAG expressed in HEK293T, lysate in TKM buffer (20 mM Tris pH 7.4, 100 mM KCl, 5 mM MgCl2, 0.5% NP40, 1 mM DTT), anti-FLAG M1 agarose overnight at 4 °C, 6 washes; untransfected cells as control; Q-Exactive, MaxQuant, 1% FDR.
Regarding B1, the binding entry is “binds”.

For the molecule B2, the binding entry is given as “binds”.

For B3, the binding entry was “binds”.

Values taken from paper PMC5841321.
